Measured data: PubChem BioAssay AID686937 (Drosophila RNAi Screening Center, 2013)
The screen tested about 23,000 reagents; this is a random part of those with a known target gene and a result. 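Reduced-secretion tags in replicate 1 do not always agree with the z-scores; no criterion for assigning the tags was given.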 Names joined by + are all predicted targets of the reagent. Not all columns of the deposit are shown. The record does not give: the amount of reagent.

Test: 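Genes whose loss weakens secretory pathway function in fly cells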 (primary screen)
Cells: Drosophila S2 cells expressing secreted horseradish peroxidase
Knock-down reagent: long dsRNA against Drosophila genes
Timing: about 5.5 days (5 days dsRNA, then 12 h reporter induction)
Conditions: reporter expression induced after 5 days of dsRNA, read 12 h later; inducer not stated
Measured: 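Chemiluminescent measurement of peroxidase in the medium 12 h after reporter induction, following 5 days of dsRNA, given as a z-score per plate; higher means more secretion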
Direction: z-score: higher = more reporter secreted into medium

z-score, replicate 1, by gene and reagent
Nadk1a (GeneID 36506): DRSC05431 -0.13; DRSC06963 -0.11
Mys45A (GeneID 35925): DRSC07067 -0.6
CG16781 (GeneID 31315): DRSC18117 -0.09
CG14500 (GeneID 37087): DRSC06471 0.21
CG14154 (GeneID 39207): DRSC10156 0.14
CG31086 + CG31323: DRSC14902 0.18
CG13995 (GeneID 33851): DRSC00907 1.11; DRSC02327 0.27; DRSC22767 0.38
Herp (GeneID 34065): DRSC02394 0.26
Awh (GeneID 38451): DRSC08140 0.23
yl (GeneID 32367): DRSC20387 0.26
maf-S (GeneID 37336): DRSC07348 0.39
Nrg (GeneID 31792): DRSC17573 0.46; DRSC18688 0.38
Sou (GeneID 37382): DRSC04356 1.42
ranshi (GeneID 41041): DRSC16564 0.12
CG11018 (GeneID 37259): DRSC06024 0.12
CG33784 (GeneID 3772181): DRSC12764 0.01
CG34249 (retired record) (GeneID 5740397): DRSC09431 -0.94
CG8861 (GeneID 41109): DRSC12731 -0.41; DRSC16449 0.34
Vap33 (GeneID 31349): DRSC18384 0.28
ImpE2 (GeneID 38432): DRSC08665 0.42
CG17683 (GeneID 3355011): DRSC21160 -1.03
yin (GeneID 31340): DRSC18854 -0.02; DRSC21889 0.37
Cyp6a9 (GeneID 36663): DRSC07385 0.63
Art1 (GeneID 41295): DRSC16063 0.42
yellow-e3 (GeneID 41651): DRSC15170 0.61
CG14830 (GeneID 38800): DRSC08876 0.37
CG32985 (GeneID 326244): DRSC02634 0.27
XNP (GeneID 43080): DRSC15594 0.29
CG14205 (GeneID 32952): DRSC19560 0.51
CG43292 (GeneID 12798367): DRSC08883 0.51; DRSC21542 0.09
Piezo (GeneID 34112): DRSC03092 0.19; DRSC03391 0.49
dpy (GeneID 318824): DRSC00233 -0.09; DRSC00234 0.16; DRSC00472 0.14
Cyp4p2 (GeneID 35946): DRSC07373 0.46
CG2861 (GeneID 31414): DRSC18229 0.18
stet (GeneID 38169): DRSC08246 0.16; DRSC08283 -3.15
ND-51L2 (GeneID 36695): DRSC07080 0.17
Arl1 (GeneID 39745): DRSC09667 0.28
PolZ1 (GeneID 47186): DRSC06800 0.28
CG17219 (GeneID 33515): DRSC00486 0.54
CG3734 (GeneID 42318): DRSC15509 0.24
CG34225 (GeneID 5740807): DRSC05270 0.1
a6 (GeneID 31127): DRSC18733 0.47
CG14853 (GeneID 41771): DRSC14977 0.32; DRSC21528 -0.99
pippin (GeneID 37770): DRSC04489 0.24
CG14074 (GeneID 40051): DRSC10079 0.08
CG11686 (GeneID 50024): DRSC14350 -0.05
Itgbn (GeneID 35368): DRSC03493 0.59
CG12237 (GeneID 32967): DRSC19449 -3.48; DRSC22256 -0.14
ArfGAP1 (GeneID 39417): DRSC11173 0.19
CG33137 (GeneID 36449): DRSC22131 0.32
Rh2 (GeneID 42261): DRSC16821 0.47
c-cup (GeneID 33360): DRSC00458 0.18
CG10953 (GeneID 36941): DRSC06021 0.28
dmrt99B (GeneID 43495): DRSC15045 -2.14
Nplp2 (GeneID 50286): DRSC09824 0.07
CG6418 (GeneID 39218): DRSC10633 0.55
CG7519 (GeneID 40377): DRSC11834 0.41
ths (GeneID 36258): DRSC06153 -1.89
Uch-L5R (GeneID 32173): DRSC19825 0.17
RecQ4 (GeneID 53438): DRSC11265 0.15
THADA (GeneID 33001): DRSC19675 0.26
CG30054 (GeneID 246420): DRSC05354 0.21
grnd (GeneID 35103): DRSC02020 0.31
Ran-like (GeneID 39666): DRSC10918 0.26
CG34045 (GeneID 3885656): DRSC05787 0.48
CG42724 (GeneID 40785): DRSC12567 0.19; DRSC22275 -1.06
CG30429 (GeneID 246609): DRSC04040 0.45
CR32511 (GeneID 12798210): DRSC20697 0.7
